# Assay results published in PubChem BioAssay (Tox21).
# Amino acid sequences for entries named in this document (tags omitted). A change or cut given only in a name is not applied to a line headed by its entry.
# UniProt P10635, whole entry, looked up: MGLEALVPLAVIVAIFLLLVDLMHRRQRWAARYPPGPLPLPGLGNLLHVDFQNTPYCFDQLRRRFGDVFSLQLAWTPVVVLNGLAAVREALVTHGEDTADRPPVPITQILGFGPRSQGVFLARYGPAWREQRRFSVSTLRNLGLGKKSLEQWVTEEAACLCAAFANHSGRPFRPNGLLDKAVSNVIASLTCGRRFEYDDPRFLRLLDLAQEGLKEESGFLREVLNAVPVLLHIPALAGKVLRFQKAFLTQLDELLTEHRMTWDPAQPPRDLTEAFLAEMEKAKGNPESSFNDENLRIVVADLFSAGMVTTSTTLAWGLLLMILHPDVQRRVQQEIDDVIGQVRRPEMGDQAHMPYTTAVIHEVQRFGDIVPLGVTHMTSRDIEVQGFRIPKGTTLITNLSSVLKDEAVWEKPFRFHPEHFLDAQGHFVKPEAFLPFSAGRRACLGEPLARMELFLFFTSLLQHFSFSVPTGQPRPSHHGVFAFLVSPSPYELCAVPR
# UniProt P11712, whole entry, looked up: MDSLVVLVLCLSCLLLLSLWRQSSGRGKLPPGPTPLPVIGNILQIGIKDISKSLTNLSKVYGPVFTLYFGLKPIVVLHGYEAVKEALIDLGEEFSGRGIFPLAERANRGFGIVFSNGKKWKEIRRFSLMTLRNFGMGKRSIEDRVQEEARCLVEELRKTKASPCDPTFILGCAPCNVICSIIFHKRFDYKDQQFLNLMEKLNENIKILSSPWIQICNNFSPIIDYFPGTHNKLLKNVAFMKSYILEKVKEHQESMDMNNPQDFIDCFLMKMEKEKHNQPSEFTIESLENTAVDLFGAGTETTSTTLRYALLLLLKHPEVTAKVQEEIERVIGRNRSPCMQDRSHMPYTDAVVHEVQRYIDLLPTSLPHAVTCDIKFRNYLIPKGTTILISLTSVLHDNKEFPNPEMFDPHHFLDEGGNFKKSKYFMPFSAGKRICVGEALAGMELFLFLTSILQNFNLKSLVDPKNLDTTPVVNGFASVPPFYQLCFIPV
# UniProt P05177, whole entry, looked up: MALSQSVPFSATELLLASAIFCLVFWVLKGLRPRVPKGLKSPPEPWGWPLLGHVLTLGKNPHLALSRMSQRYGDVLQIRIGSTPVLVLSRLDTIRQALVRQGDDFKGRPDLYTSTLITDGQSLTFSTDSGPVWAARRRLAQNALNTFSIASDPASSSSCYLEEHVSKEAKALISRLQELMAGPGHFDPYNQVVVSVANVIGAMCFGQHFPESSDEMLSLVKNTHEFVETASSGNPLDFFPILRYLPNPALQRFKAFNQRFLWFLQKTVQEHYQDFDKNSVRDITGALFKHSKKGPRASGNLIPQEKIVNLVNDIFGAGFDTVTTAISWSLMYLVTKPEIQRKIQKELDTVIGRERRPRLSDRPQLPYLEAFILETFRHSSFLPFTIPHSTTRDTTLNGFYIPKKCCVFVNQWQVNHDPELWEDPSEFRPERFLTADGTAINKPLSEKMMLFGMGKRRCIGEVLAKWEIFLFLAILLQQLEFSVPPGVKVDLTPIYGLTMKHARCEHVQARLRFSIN
# UniProt P33261, whole entry, looked up: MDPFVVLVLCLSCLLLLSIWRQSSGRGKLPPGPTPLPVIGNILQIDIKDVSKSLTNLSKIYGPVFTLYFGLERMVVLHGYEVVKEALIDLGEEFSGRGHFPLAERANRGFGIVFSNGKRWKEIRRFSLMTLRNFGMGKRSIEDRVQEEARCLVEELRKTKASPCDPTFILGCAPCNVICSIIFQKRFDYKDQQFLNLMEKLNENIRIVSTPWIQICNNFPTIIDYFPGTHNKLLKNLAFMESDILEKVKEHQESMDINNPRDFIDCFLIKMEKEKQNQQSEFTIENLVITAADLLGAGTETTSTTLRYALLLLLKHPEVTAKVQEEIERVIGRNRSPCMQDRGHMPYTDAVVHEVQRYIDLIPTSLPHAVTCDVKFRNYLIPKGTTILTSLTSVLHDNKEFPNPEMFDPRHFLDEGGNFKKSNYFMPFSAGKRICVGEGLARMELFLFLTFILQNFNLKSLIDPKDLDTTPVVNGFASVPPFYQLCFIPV
# UniProt Q12809: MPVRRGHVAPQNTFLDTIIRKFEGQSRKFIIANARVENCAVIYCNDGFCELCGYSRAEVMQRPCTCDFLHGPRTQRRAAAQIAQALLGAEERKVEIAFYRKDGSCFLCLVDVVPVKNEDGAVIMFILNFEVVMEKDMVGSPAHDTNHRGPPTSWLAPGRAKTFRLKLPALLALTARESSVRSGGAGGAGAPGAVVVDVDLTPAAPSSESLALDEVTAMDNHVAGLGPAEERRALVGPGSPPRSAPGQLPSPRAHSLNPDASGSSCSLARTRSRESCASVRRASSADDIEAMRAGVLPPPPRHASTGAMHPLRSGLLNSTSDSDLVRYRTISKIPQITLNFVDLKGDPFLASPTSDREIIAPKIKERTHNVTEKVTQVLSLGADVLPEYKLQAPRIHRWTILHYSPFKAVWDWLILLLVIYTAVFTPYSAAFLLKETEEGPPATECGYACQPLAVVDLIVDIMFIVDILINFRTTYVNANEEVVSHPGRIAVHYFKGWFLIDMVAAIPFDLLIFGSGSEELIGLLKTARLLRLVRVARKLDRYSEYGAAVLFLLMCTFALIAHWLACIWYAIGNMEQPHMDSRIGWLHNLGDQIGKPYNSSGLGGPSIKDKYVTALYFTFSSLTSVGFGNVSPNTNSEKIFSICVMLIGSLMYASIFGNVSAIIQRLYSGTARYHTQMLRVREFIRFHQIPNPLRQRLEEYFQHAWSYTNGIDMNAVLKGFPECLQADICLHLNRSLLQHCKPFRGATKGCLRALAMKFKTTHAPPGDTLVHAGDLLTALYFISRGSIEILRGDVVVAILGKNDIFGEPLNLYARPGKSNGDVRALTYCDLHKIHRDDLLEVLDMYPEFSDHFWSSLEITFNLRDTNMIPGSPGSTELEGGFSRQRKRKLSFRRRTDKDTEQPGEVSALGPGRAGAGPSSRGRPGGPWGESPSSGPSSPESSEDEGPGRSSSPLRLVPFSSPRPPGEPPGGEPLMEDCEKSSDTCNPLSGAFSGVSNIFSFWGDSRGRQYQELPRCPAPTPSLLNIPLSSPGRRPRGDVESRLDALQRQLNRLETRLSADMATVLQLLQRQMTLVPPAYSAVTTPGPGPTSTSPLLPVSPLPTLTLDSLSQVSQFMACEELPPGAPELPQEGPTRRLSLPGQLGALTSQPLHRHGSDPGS
# UniProt P08684, whole entry, looked up: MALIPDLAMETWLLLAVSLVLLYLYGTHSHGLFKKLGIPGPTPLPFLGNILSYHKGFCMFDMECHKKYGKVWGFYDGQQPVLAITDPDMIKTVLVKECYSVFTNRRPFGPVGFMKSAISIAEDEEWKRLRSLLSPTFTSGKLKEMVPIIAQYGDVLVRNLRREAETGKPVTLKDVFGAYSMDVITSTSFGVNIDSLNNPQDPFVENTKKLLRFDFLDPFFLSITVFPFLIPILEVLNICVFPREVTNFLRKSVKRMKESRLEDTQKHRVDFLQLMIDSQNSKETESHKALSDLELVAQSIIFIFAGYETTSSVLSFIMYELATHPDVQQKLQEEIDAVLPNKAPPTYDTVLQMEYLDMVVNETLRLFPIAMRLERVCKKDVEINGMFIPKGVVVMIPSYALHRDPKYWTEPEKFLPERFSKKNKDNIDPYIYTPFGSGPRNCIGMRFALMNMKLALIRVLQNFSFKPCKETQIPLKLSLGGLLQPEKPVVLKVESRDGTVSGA
# Values joined by “and” are separate entries in the source; they are usually repeats but may differ in a detail not shown here. Equal values may be shown once. Inconclusive means that the source gave no clear call. Such entries were picked first, then a sample of the others. Potencies beside an inconclusive call are fits to weak or partial responses and may not hold up. More than one record can exist for a structure, and the calls need not agree. Active and inactive are the calls of the source. Calls follow the shape of the dose curve; as a rule, active = well fitted curve in the direction sought with a large enough effect in the repeat runs; inconclusive = weak or mixed curves; inactive = no such curve, though single readings can be large; an effect the other way counts as inactive or inconclusive.
# How the values were obtained:
# [1] = target: Cytochrome P450 2D6 (Homo sapiens) (UniProt P10635); test: Cytochrome P450 Family 2 Subfamily D Member 6 (CYP2D6) small molecule antagonists: luciferase reporter qHTS assay (AID 1671196); conditions: P450-Glo CYP2D6 enzyme assay, luciferin luminescence, 1 h; series mostly up to 115 µM; also: nearly all actives have a fitted effect of over 50% in size
# Outline: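 Enzyme and proluciferin substrate were first combined with test chemical for 10 min at room temperature. Adding NADPH regeneration solution started a 1 h reaction, stopped with luciferin detection reagent and read by luminescence 20 min later.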
# [2] = target: Cytochrome P450 2C9 (Homo sapiens) (UniProt P11712); test: Cytochrome P450 Family 2 Subfamily C Member 9 (CYP2C9) small molecule antagonists: luciferase reporter qHTS assay (AID 1671198); conditions: P450-Glo CYP2C9 enzyme assay, luciferin luminescence; series mostly up to 115 µM; also: nearly all actives have a fitted effect of over 50% in size
# Outline: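 CYP2C9 activity was measured with a P450-Glo proluciferin substrate. Enzyme–substrate mix was held with compound for 10 min at room temperature, then NADPH regeneration solution was added for 1 h at 37C. Luciferin product was read as luminescence.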
# [3] = target: Cytochrome P450 1A2 (Homo sapiens) (UniProt P05177); test: Cytochrome P450 Family 1 Subfamily A Member 2 (CYP1A2) small molecule antagonists: luciferase reporter qHTS assay (AID 1671199); conditions: P450-Glo CYP1A2 enzyme, luciferin luminescence, 1 h; series mostly up to 115 µM; also: nearly all actives have a fitted effect of over 50% in size
# Outline: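 Compounds were incubated with CYP1A2 and a luminogenic proluciferin substrate for 10 min at room temperature before the reaction was started with NADPH regeneration solution. After 1 h, detection reagent was added and light output, proportional to CYP activity, was recorded.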
# [4] = target: Cytochrome P450 2C19 (Homo sapiens) (UniProt P33261); test: Cytochrome P450 Family 2 Subfamily C Member 19 (CYP2C19) small molecule antagonists: luciferase reporter qHTS assay (AID 1671197); conditions: P450-Glo CYP2C19 enzyme, luciferin luminescence, 1 h; series mostly up to 115 µM; also: nearly all actives have a fitted effect of over 65% in size
# Outline: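 Enzyme-substrate mix with proluciferin substrate (P450-Glo CYP2C19 system) preincubated with compounds 10 min at room temperature; NADPH regeneration solution added, 37C for 1 h; detection reagent stops reaction, luminescence read after 20 min. Ketoconazole positive control.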
# [5] = target: Voltage-gated inwardly rectifying potassium channel KCNH2 (Homo sapiens) (UniProt Q12809); test: Human Ether-a-go-go-Related Gene (hERG) channel small molecule antagonists: fluorescence cell-based qHTS assay (AID 1671200); conditions: hERG-U2OS cells, FluxOR thallium flux fluorescence; series mostly up to 76.8 µM; also: nearly all actives have a fitted effect of over 50% in size
# Outline: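 Thallium served as the potassium surrogate; its influx into dye-loaded U2OS cells carrying the channel was measured by fluorescence over 2 min.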
# [6] = target: Cytochrome P450 3A4 (Homo sapiens) (UniProt P08684); test: Cytochrome P450 Family 3 Subfamily A Member 4 (CYP3A4) small molecule antagonists: luciferase reporter qHTS assay (AID 1671201); conditions: P450-Glo CYP3A4 enzyme, luciferin luminescence, 1 h; series mostly up to 115 µM; also: nearly all actives have a fitted effect of over 50% in size
# Outline: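 Relative luminescence units after 20 min with luciferin detection reagent served as read-out. Beforehand, CYP3A4 turned over a proluciferin substrate for 1 h at room temperature with NADPH regeneration, following 10 min compound preincubation.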
# Potency is read from the fitted curve at half-maximal effect.
compound,measurement,setting,value
Oc1cccc(-c2c3nc(c(-c4cccc(O)c4)c4ccc([nH]4)c(-c4cccc(O)c4)c4nc(c(-c5cccc(O)c5)c5ccc2[nH]5)CC4)C=C3)c1,Potency,[1],"inconclusive: 34.7 µM [inhibitor, partial curve]"
same,Potency,[2],active: 13.8 µM
same,Potency,[3],inactive
CCN1CCN(c2cc(-c3ccc(F)cc3)c3c(n2)CCCCCC3)CC1,Potency,[1],active: 6.74 µM
same,Potency,[3],"inconclusive: 8.87 µM [inhibitor, partial curve]"
Clc1cc(Cl)nc(Cl)n1,Potency,[1],"inconclusive: 57.1 µM [inhibitor, partial curve]"
same,Potency,[4],"inconclusive: 90.5 µM [inhibitor, single point]"
same,Potency,[5],inactive
NNC(=O)c1cccc(C(=O)NN)c1,Potency,[1],"inconclusive: 35.6 µM [inhibitor, partial curve]"
same,Potency,[2],active: 35.6 µM
CS(=O)(=O)OCCCCOS(C)(=O)=O,Potency,[1],"inconclusive: 39.9 µM [inhibitor, partial curve] and inconclusive: 30.9 µM [inhibitor, partial curve, poor fit]"
same,Potency,[2],inconclusive: 89.6 µM [inhibitor]
same,Potency,[3],"inconclusive: 79.9 µM [inhibitor, single point] and inactive"
CCC(O)C(C)(C)C (stereo not given),Potency,[1],inactive
same,Potency,[3],"inconclusive: 65.3 µM [inhibitor, partial curve]"
CC(CN(CCN(CC(C)OCCO)CC(C)OCCO)CC(C)OCCO)OCCO (stereo not given),Potency,[1],"inconclusive: 34.3 µM [inhibitor, partial curve]"
same,Potency,[2],"inconclusive: 13.6 µM [inhibitor, full curve]"
same,Potency,[3],inactive
same,Potency,[6],"inconclusive: 30.6 µM [inhibitor, partial curve, poor fit]"
S=C1NC=NC2N=CNC12 (stereo not given),Potency,[1],"inconclusive: 28.3 µM [inhibitor, partial curve]"
same,Potency,[2],active: 39.9 µM
same,Potency,[6],inactive
COC(=O)CC(C)CCC=C(C)C (stereo not given),Potency,[1],inactive
same,Potency,[3],"inconclusive: 71 µM [inhibitor, partial curve, poor fit]"
CCCCCCOC(=O)CCCCC,Potency,[1],inactive
same,Potency,[2],inactive
COC(CC(C)CCCC(C)(C)O)OC (stereo not given),Potency,[1],"inconclusive: 89.4 µM [inhibitor, single point]"
same,Potency,[2],"inconclusive: 63.3 µM [inhibitor, partial curve, poor fit]"
same,Potency,[3],"inconclusive: 63.3 µM [inhibitor, partial curve]"
CCc1cc(C(C)(C)C)c(O)c(C(C)(C)C)c1,Potency,[1],"inconclusive: 79.6 µM [inhibitor, partial curve]"
same,Potency,[2],"inconclusive: 80.5 µM [inhibitor, partial curve, poor fit] and inconclusive: 63.3 µM [inhibitor, partial curve, poor fit]"
same,Potency,[5],"inconclusive: 17.4 µM [inhibitor, partial curve, poor fit]"
same,Potency,[6],"inconclusive: 63.3 µM [inhibitor, partial curve]"
Cc1nc2ccccc2s1,Potency,[1],inactive
same,Potency,[3],"inconclusive: 40.2 µM [inhibitor, partial curve]"
CC1Cc2ccccc2N1NC(=O)c1ccc(Cl)c(S(N)(=O)=O)c1 (stereo not given),Potency,[1],"inconclusive: 39.9 µM [inhibitor, partial curve] and inconclusive: 27.5 µM [inhibitor]"
same,Potency,[2],"inconclusive: 39.9 µM [inhibitor, partial curve]"
CCC(O)OC(O)CC (stereo not given),Potency,[1],active: 36 µM
same,Potency,[2],"inconclusive: 80.6 µM [inhibitor, partial curve, poor fit]"
same,Potency,[3],"inconclusive: 64 µM [inhibitor, partial curve, poor fit] and inactive"
CC(=O)Oc1ccccc1C(=O)O,Potency,[1],"inconclusive: 30.9 µM [inhibitor, partial curve]"
same,Potency,[2],"inconclusive: 62.9 µM [inhibitor, partial curve, poor fit]"
Cc1ccc(NC(N)=O)cc1,Potency,[1],inactive
same,Potency,[3],active: 40.2 µM
OC1CCCC1,Potency,[1],inactive
same,Potency,[3],"inconclusive: 39.9 µM [inhibitor, partial curve]"
COC(=O)C1CCC(C(=O)OC)CC1 (stereo not given),Potency,[1],"inconclusive: 63.3 µM [inhibitor, partial curve, poor fit]"
same,Potency,[3],"inconclusive: 40.4 µM [inhibitor, partial curve] and inconclusive: 63.3 µM [inhibitor]"
O=C(CCCCCCCCC#CI)Oc1ccccc1,Potency,[1],"inconclusive: 24.5 µM [inhibitor, partial curve]"
same,Potency,[3],"inconclusive: 36.3 µM [inhibitor, single point]"
Cc1cccc(C)c1OCC(C)N (stereo not given),Potency,[1],active: 13.8 µM
same,Potency,[2],"inconclusive: 17.4 µM [inhibitor, partial curve, poor fit]"
same,Potency,[6],inactive
C=CC/C=C/C,Potency,[1],"inconclusive: 92.4 µM [inhibitor, partial curve, poor fit]"
same,Potency,[3],"inconclusive: 73.4 µM [inhibitor, partial curve]"
Cc1cc(O)c(C)c(C)c1O,Potency,[1],"inconclusive: 27.5 µM [inhibitor, partial curve]"
same,Potency,[2],"inconclusive: 30.9 µM [inhibitor, partial curve, poor fit]"
CCO[Si](CC(C)C)(OCC)OCC,Potency,[1],active: 44.8 µM
same,Potency,[3],"inconclusive: 39.9 µM [inhibitor, partial curve, poor fit]"
NC(=O)c1ccccc1N,Potency,[1],"inconclusive: 101 µM [inhibitor, partial curve, poor fit]"
same,Potency,[2],inactive
same,Potency,[3],active: 31.9 µM
O=C(Cl)c1cccc(C(=O)Cl)c1,Potency,[1],"inconclusive: 31.7 µM [inhibitor, full curve, poor fit]"
same,Potency,[2],"inconclusive: 79.6 µM [inhibitor, single point] and inconclusive: 63.3 µM [inhibitor, partial curve, poor fit]"
CCOCCOCCO,Potency,[1],"inconclusive: 51.7 µM [inhibitor, partial curve, poor fit]"
same,Potency,[2],"inconclusive: 58 µM [inhibitor, partial curve]"
same,Potency,[3],"inconclusive: 36.6 µM [inhibitor, partial curve] and inactive"
CC(=O)C1C(=O)C=C(C)OC1=O (stereo not given),Potency,[1],"inconclusive: 35.6 µM [inhibitor, partial curve]"
same,Potency,[2],"inconclusive: 56.4 µM [inhibitor, partial curve]"
CCNc1nc(N)nc(Cl)n1,Potency,[1],"inconclusive: 89.4 µM [inhibitor, partial curve, poor fit]"
same,Potency,[4],"inconclusive: 89.4 µM [inhibitor, single point]"
same,Potency,[5],inactive
Cc1ccccc1Br,Potency,[1],"inconclusive: 79.1 µM [inhibitor, single point]"
same,Potency,[2],"inconclusive: 56 µM [inhibitor, partial curve, poor fit]"
same,Potency,[3],"inconclusive: 39.7 µM [inhibitor, partial curve]"
